Some of the results follow. Further columns of the screen follow, without active or inactive calls. The list favours compounds with an active or inconclusive main result. Words in brackets tell the shape of the fitted curve; partial curves, single points and poor fits give uncertain potencies.

We go through 61 compounds from PubChem BioAssay AID2685 (National Center for Advancing Translational Sciences (NCATS), 2010).

The assay can be described thus: qHTS Assay for Lipid Storage Modulators in Drosophila S3 Cells.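 On cell number change: cells counted by Cell Tracker Red CMTPX staining in the red channel.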 As to conditions: BODIPY lipid droplet fluorescence, 18-24 h; for cell number change: measured here: cell count max response, cells fed with added oleic acid. Put shortly:
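Laser-scanning cytometry quantifies lipid droplet accumulation (500–530 nm total intensity; droplet/cell object ratio) in oleic acid-fed (400 uM added) Drosophila S3 cells treated with a concentration series. 20 uM Triacsin C defined 100% inhibition.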
On the technique in general: qHTS replaces the single test concentration by a dilution series.

Setting [1] is: measured here: cell number channel AC50, cells fed with added oleic acid.
[2] abbreviates: measured here: lipid fluorescence (Fed channel) AC50, cells fed with added oleic acid.

In the case of `Fc1ccc(-c2csc3nnc(SCc4cccnc4)n23)cc1`, the AC50 by setting is: under setting [1], 2.91 µM [rising, partial curve]; under setting [2], 0.13 µM [rising, full curve, poor fit].

Consider `O=C(NN=C1CCCCC1)c1cc(-c2ccccc2)n[nH]1`, for which the cell number change was -6.51%. Further, the AC50 under setting [2] is 2.06 µM [rising, partial curve, poor fit].

For the compound `Cc1cccc(Nc2nnc(-c3ccc(C(=O)N4C[C@H]5C[C@H](C4)c4cccc(=O)n4C5)cc3)c3ccccc23)c1`, under setting [2], the AC50 is 0.58 µM [rising, single point].

With `COc1ccc(-c2csc3nc(-c4cccnc4)nc(N4CCC(C(N)=O)CC4)c23)cc1OC`, under setting [2], the AC50 is 0.92 µM [rising, full curve].

On to `Cc1ccc(NC(=O)CSCc2ccco2)cc1`, for which the cell number change is 37.9%. Further, under setting [1], the AC50 was 29.1 µM [rising, single point].

For the compound `O=c1oc2cc(O)ccc2cc1-c1nc2c(s1)CCc1ccccc1-2`, the cell number change was 27.4%. For the same compound, the AC50 under setting [1] was 1.84 µM [rising, partial curve, poor fit].

In the case of `Cc1ccccc1CNC(=O)CN1C(=O)c2ccccc2S1(=O)=O`, the cell number change was -7.89%.

Regarding `Clc1ccc(C2Nc3cccc4cccc(c34)N2)cc1`, the cell number change was -19.2%. The AC50 under setting [2] was 0.517 µM [rising, single point].

Consider `O=C(CNCc1ccccc1)Nc1ccc(Cl)cc1`, for which the cell number change worked out at 6.2%. The AC50 under setting [2] is 1.16 µM [rising, full curve, poor fit].

For `CC1CN(CC(=O)Nc2cccc(C(=O)Nc3cccc(C(F)(F)F)c3)c2)CC(C)O1` (stereo not drawn), the cell number change was determined as 76.5%. The AC50 under setting [1] is 9.2 µM [rising, partial curve]. The AC50 under setting [2] was 4.11 µM [rising, partial curve, poor fit].

Turning to `CC(=O)Nc1cc(S(=O)(=O)C(F)(F)F)ccc1Cl`, the cell number change is 14.5%. In addition, under setting [2], the AC50 was 9.2 µM [rising, partial curve].

Take `Cc1ccc2[nH]c3c(c2c1)SC(C)(C)CC3=O`: the cell number change is -17.7%.

As for `CCOc1ccccc1OCCN1CCCC1`, the cell number change is 18.2%. Further, the AC50 under setting [2] is 32.6 µM [rising, single point].

In the case of `CCN(CC)S(=O)(=O)c1cc(C(=O)O)c(Cl)cc1Cl`, the cell number change was -10.7%.

Regarding `CCOc1ccc(OCC)c(NS(=O)(=O)c2cn(C)cn2)c1`, the AC50 under setting [1] is 6.51 µM [falling, single point].

As to `Cc1cccn2c(=O)c3cc(C(=O)NCCN4CCOCC4)n(C)c3nc12`, the cell number change is -9.73%. Also, the AC50 under setting [2] is 1.64 µM [rising, partial curve].

Consider `COc1ccc(C(=O)N2CCCC(CCC(=O)NCc3ccc(F)c(F)c3)C2)o1` (stereo not drawn), for which the cell number change is -23%. Moreover, under setting [2], the AC50 is 6.51 µM [falling, full curve, poor fit].

`Cc1ccc(NC(=O)C(=O)NCCN2CCN(C(=S)Nc3ccccc3)CC2)cc1`: the cell number change is 4.95%. Also, the AC50 under setting [2] is 2.91 µM [rising, single point].

In the case of `NC(=O)C1CCN(C(=O)C2CC(=O)N(c3ccc(F)cc3)C2)CC1` (stereo not drawn), the cell number change worked out at 9.83%.

As for `Cn1c(=O)c2c(ncn2CCNC2=NCCCCC2)n(C)c1=O`, the cell number change was -12.6%. Further, the AC50 under setting [2] is 0.00461 µM [falling, full curve, poor fit].

`COc1cccc(NC(=O)C2CCC2)c1`: the cell number change worked out at 17.6%. For the same compound, the half-maximal activity concentration (AC50) under setting [2] was 6.51 µM [rising, partial curve, poor fit].

Turning to `N/C(=N\OC(=O)Nc1ccc(Cl)c(Cl)c1)c1ncc(C(F)(F)F)cc1Cl`, the cell number change came to 4.12%.

Turning to `COc1ccc(C(C)=O)cc1COc1ncnc2ccccc12`, the cell number change turned out to be 37.2%. For the same compound, under setting [1], the AC50 is 0.058 µM [rising, full curve, poor fit]. In addition, the AC50 under setting [2] is 2.31 µM [rising, partial curve, poor fit].

As to `Cc1ccc(CC(=O)N2CCOCC2)cc1`, the cell number change is -2.46%. Also, the AC50 under setting [2] is 9.2 µM [falling, single point].

Regarding `CCc1ccc(N(CC(=O)N2CCOCC2)S(C)(=O)=O)cc1`, the cell number change came out at 4.01%. Besides, under setting [2], the AC50 was 29.1 µM [falling, single point].

`CCc1cc(CNC(=O)CCc2nnc(Cc3cccc(C)c3)o2)on1`: the cell number change is -17.7%. For the same compound, under setting [2], the AC50 is 16.4 µM [falling, single point].

With `COc1ccc(CNC(=O)CSc2nnc3c(n2)[nH]c2ccc(C)cc23)cc1`, the cell number change worked out at 1.74%. Besides, the AC50 under setting [2] was 6.51 µM [falling, single point].

`COc1cccc(C(=O)N2CCN(C3CCN(Cc4ccccc4)CC3)CC2)c1`: the cell number change is -6.83%.

With `Cc1ccc2sc3ccc(NC(=O)c4ccccc4Cl)cc3c(=O)c2c1`, the cell number change turned out to be 18.4%. The AC50 under setting [2] was 29.1 µM [falling, single point].

Turning to `CCCS(=O)(=O)N1CCN(Cc2ccccc2C(F)(F)F)CC1`, the cell number change is -11.3%.

Take `O=C(Nc1cccc(F)c1)N1CCC(c2ccccc2)CC1`: the cell number change was found to be 11.3%. The AC50 under setting [1] is 0.231 µM [rising, full curve, poor fit].

As for `CC(=O)Oc1ccc(C(=O)[C@H]2[C@H]3C(=O)N(c4ccc(C)cc4C)C(=O)[C@H]3[C@@H]3C=CC=NN32)cc1`, the cell number change was found to be 17.7%. Further, the AC50 under setting [2] was 0.0058 µM [rising, full curve, poor fit].

On to `CC(=O)c1c(C)[nH]c(C(=O)OCc2cccc(Cl)c2)c1C`, for which the cell number change is -38.4%. In addition, the AC50 under setting [2] was 0.116 µM [falling, full curve, poor fit].

As to `Cc1csc(NC(=O)C2CCCN(S(=O)(=O)c3cnc[nH]3)C2)n1` (stereo not drawn), the cell number change is -6.08%.

Regarding `Cc1ccc(CNC(=O)CSc2nc3[nH]ncc3c(=O)[nH]2)cc1`, the cell number change is -22.6%. Also, the AC50 under setting [1] was 0.00461 µM [falling, full curve, poor fit]. In addition, under setting [2], the AC50 was 13 µM [falling, partial curve].

Turning to `O=C(Cc1ccc(F)cc1)NC(Cc1c[nH]c2ccccc12)C(=O)O` (stereo not drawn), the cell number change was -3.95%.

On to `COc1cc(C(=O)N[C@@H](Cc2c[nH]c3ccccc23)C(=O)O)cc(OC)c1OC`, for which the cell number change is 23.5%.

Regarding `CN(C)C(=O)CN1CCN(Cc2cn(C)nc2-c2ccc3c(c2)OCCO3)CC1`, the cell number change is 9.27%. Further, under setting [2], the AC50 is 5.17 µM [rising, partial curve].

Regarding `COc1c(O)cccc1/C=N/NC(=O)Cn1ccnc1C`, the AC50 reads like this: under setting [1], 5.8 µM [rising, partial curve, poor fit]; under setting [2], 4.11 µM [rising, partial curve, poor fit].

With `CCOC(=O)COc1c(Cl)cc(C2NC(=S)NC(c3ccccc3)=C2C(C)=O)cc1OC` (stereo not drawn), the cell number change is -0.953%. The AC50 under setting [2] is 0.82 µM [rising, partial curve, poor fit].

`CON(c1nc(Cl)nc(N(C)C)n1)S(=O)(=O)c1ccc(C)cc1`: the cell number change was -8.33%.

On to `CC(C)OC(=O)C1CC=CCC1C(=O)Nc1ccc(Cl)cc1` (stereo not drawn), for which the AC50 under setting [1] was 1.84 µM [rising, partial curve].

As to `COc1cc2c(cc1OC)C(C(=O)NCC1COc3ccccc3O1)C(c1cccnc1)N(C)C2=O` (stereo not drawn), the cell number change came out at 156%. For the same compound, under setting [1], the AC50 is 18.4 µM [rising, partial curve].

Consider `CCc1ccc(N2CC(C(=O)NC3CC3)CC2=O)cc1` (stereo not drawn), for which the cell number change was 22.5%. Moreover, under setting [2], the AC50 was 29.1 µM [falling, single point].

Take `O=C(CCNS(=O)(=O)c1ccc(Br)cc1)NCCCSc1ccccc1`: the cell number change was -8.42%. Also, the AC50 under setting [2] was 8.2 µM [falling, partial curve, poor fit].

As for `O=C(CCn1c(=O)c2ccccc2n(CC(=O)NC2CCCC2)c1=O)NCCc1ccc(Cl)cc1`, the cell number change came out at 28.1%. In addition, the AC50 under setting [1] was 1.3 µM [rising, full curve].

Consider `O=C(OCCN=C1NS(=O)(=O)c2ccccc21)C1CC(=O)N(c2ccc(Cl)cc2)C1` (stereo not drawn), for which the cell number change is 0.318%. In addition, under setting [1], the AC50 is 3.26 µM [falling, single point]. The AC50 under setting [2] was 6.51 µM [falling, single point].

Consider `COc1cc(NC(=O)c2cc3nc(C)cc(C)n3n2)c(OC)cc1Cl`, for which the cell number change was -0.809%.

As for `CCc1cc2c(=O)c(-c3ccc(F)cc3)c(C)oc2cc1OCC(=O)O`, the cell number change is -9.84%. Besides, the AC50 under setting [1] was 1.16 µM [rising, single point]. Besides, the AC50 under setting [2] is 1.16 µM [rising, single point].

Turning to `COCCNc1nc(N)c([N+](=O)[O-])c(NCCO)n1`, the cell number change was found to be 5.97%. Further, the AC50 under setting [2] was 23.1 µM [rising, partial curve, poor fit].

Regarding `CSC1=NC(=O)/C(=C/c2ccc(SC)cc2)S1`, the cell number change was -12.9%.

Turning to `COc1ccccc1N1CCN(C(=O)c2cccc(N3C(=O)C4C5C=CC(C5)C4C3=O)c2)CC1` (stereo not drawn), the cell number change came out at 84.8%. Under setting [1], the AC50 is 18.4 µM [rising, single point]. Also, the AC50 under setting [2] is 11.6 µM [rising, partial curve].

With `COc1ccc(OC)c(NC(=O)c2cc(-c3cc(C)cc(C)c3O)n[nH]2)c1`, the cell number change was -47.7%. The AC50 under setting [1] is 29.1 µM [falling, single point]. In addition, the AC50 under setting [2] is 29.1 µM [falling, single point].

With `COc1ccccc1N1CCN(C(=O)c2ccc(S(=O)(=O)N3CCCCC3)cc2)CC1`, the cell number change was -3.83%. Further, the AC50 under setting [2] is 6.51 µM [rising, partial curve, poor fit].

With `COc1ccccc1-c1cc(SC)c(C#N)c(=O)o1`, the cell number change was -55.5%. In addition, the AC50 under setting [1] was 11.6 µM [falling, partial curve]. The AC50 under setting [2] was 13 µM [falling, partial curve].

For `CC(C)Oc1cccc(C(=O)Nc2ncn[nH]2)c1`, the cell number change is -0.265%. Moreover, the AC50 under setting [2] was 29.1 µM [rising, single point].

For `Cc1ccc(-c2nnc(N3CCN(C(=O)COc4ccccc4)CC3)c3ccccc23)cc1`, the cell number change was 73.1%. Under setting [1], the AC50 is 4.61 µM [rising, full curve]. Moreover, the AC50 under setting [2] was 3.66 µM [rising, full curve].

With `CCOC(=O)c1cnn(Cc2ccccc2Cl)c1N`, under setting [2], the AC50 is 4.61 µM [rising, single point].

Take `CCN(CC)S(=O)(=O)c1ccc(C(=O)OCn2nnc3ccccc3c2=O)cc1`: the cell number change is 9.91%. Also, the AC50 under setting [1] was 0.731 µM [falling, full curve, poor fit]. Besides, the AC50 under setting [2] was 1.84 µM [falling, partial curve].

For `N=C(N)SCc1ncccc1O`, the cell number change was -29.8%. Further, the AC50 under setting [2] was 18.4 µM [falling, single point].

Take `Cc1nc(C)c(C(=O)OCC(=O)Nc2cccc(C)c2C)s1`: under setting [2], the AC50 was 14.6 µM [falling, partial curve].

The AC50 is the concentration giving half of the maximal activity seen.
